PubChem BioAssay AID1159578 – Peter MacCallum Cancer Centre, 2015
Here is an unselected part of about 18,000 reagents tested. About 1,030 of them (5.7%) count as active. 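Inactive calls also include pools with fewer than 3300 nuclei, whose migration was not assessed.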 Raw values are not corrected between plates. Entries without a mark were called inactive.

Purpose: 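Knock-downs that alter how fast lymphatic endothelial cells migrate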 (primary screen)
Cells: human lymphatic endothelial cells
Reagents: siRNA pool against human genes, 40 nM
Timing: 48 h after transfection
Measured: 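Cells stained with dye and imaged after a scratch; covered wound area and nuclei counted, duplicates averaged, migration set against mock wells and turned into a robust z-score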
Reading the numbers: migration robust z-score: higher = faster migration into the scratch; migration relative to mock: higher = more scratch area covered than mock; nuclei per well: higher = more cells in the well
Hit rule: 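Migration changed when robust z exceeds 2 or falls below -2 and mean nuclei number is at least 3300; otherwise not called changed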
Calls: active = migration changed; inactive = no migration change, or too few cells

Gene | PubChem SID | migration robust z-score | migration class with cell-count check | migration relative to mock | nuclei per well, duplicate mean
DNAJC16 (DnaJ heat shock protein family (Hsp40) member C16) | SID255356172 | 1.17 | migration z between -2 and 2; enough cells | 1.19 | 5919
UNC13B (unc-13 homolog B) | SID255355131 | 1.58 | migration z between -2 and 2; enough cells | 1.29 | 5982
CYP4F11 (cytochrome P450 family 4 subfamily F member 11) | SID255359611 | -2.41 (active) | migration z below -2; enough cells | 0.34 | 5208
DDX21 (DExD-box helicase 21) | SID255354102 | 1.02 | migration z between -2 and 2; enough cells | 1 | 4582
PNO1 (partner of NOB1 homolog) | SID255359151 | -0.22 | migration z between -2 and 2; enough cells | 0.83 | 4782
EMP2 (epithelial membrane protein 2) | SID255349496 | -0.5 | migration z between -2 and 2; enough cells | 0.76 | 5832
NUDT4 (nudix hydrolase 4) | SID255355645 | 1.35 | migration z between -2 and 2; enough cells | 1.06 | 5940
SH3BP1 (SH3 domain binding protein 1) | SID255356368 | -0.29 | migration z between -2 and 2; enough cells | 0.75 | 5527
SCRN2 (secernin 2) | SID255361834 | -0.57 | migration z between -2 and 2; enough cells | 0.7 | 5360
FRMD1 (FERM domain containing 1) | SID255360608 | 1.75 | migration z between -2 and 2; enough cells | 1.34 | 6156
SACK1B (scaffolding CK1 anchoring protein B) | SID255364350 | 1.66 | migration z between -2 and 2; enough cells | 1.31 | 6057
PROCR (protein C receptor) | SID255355167 | 1.4 | migration z between -2 and 2; enough cells | 1.08 | 5844
VPS9D1 (VPS9 domain containing 1) | SID255354406 | 0.94 | migration z between -2 and 2; enough cells | 0.99 | 5116
POLR1G (RNA polymerase I subunit G) | SID255355389 | -1.28 | migration z between -2 and 2; enough cells | 0.55 | 4212
PLCB1 (phospholipase C beta 1) | SID255356093 | -0.28 | migration z between -2 and 2; enough cells | 0.81 | 7412
COL3A1 (collagen type III alpha 1 chain) | SID255349004 | -0.13 | migration z between -2 and 2; enough cells | 0.85 | 5510
APP (amyloid beta precursor protein) | SID255348357 | 1.53 | migration z between -2 and 2; enough cells | 1.1 | 6704
CHERP (calcium homeostasis endoplasmic reticulum protein) | SID255355149 | -0.04 | migration z between -2 and 2; enough cells | 0.88 | 5799
TMEM165 (transmembrane protein 165) | SID255358919 | -0.18 | migration z between -2 and 2; enough cells | 0.84 | 5961
TENT5D (terminal nucleotidyltransferase 5D) | SID255363890 | 2.76 (active) | migration z above 2; enough cells | 1.6 | 5726
SYNDIG1 (synapse differentiation inducing 1) | SID255360588 | -0.83 | migration z between -2 and 2; enough cells | 0.64 | 5618
NOXRED1 (NADP dependent oxidoreductase domain containing 1) | SID255362566 | 1.08 | migration z between -2 and 2; enough cells | 1.17 | 6132
ADPRH (ADP-ribosylarginine hydrolase) | SID255348205 | -0.69 | migration z between -2 and 2; enough cells | 0.7 | 6281
MPPED2 (metallophosphoesterase domain containing 2) | SID255348625 | 0.9 | migration z between -2 and 2; enough cells | 0.98 | 4048
SLC25A13 | SID255354863 | 0.24 | migration z between -2 and 2; enough cells | 0.85 | 5370
CPNE5 (copine 5) | SID255359559 | 0.76 | migration z between -2 and 2; enough cells | 0.95 | 4761
FADD (Fas associated via death domain) | SID255353799 | 0.55 | migration z between -2 and 2; enough cells | 0.91 | 6020
ZNF626 (zinc finger protein 626) | SID255364008 | 0.84 | migration z between -2 and 2; enough cells | 1.09 | 6002
CEP70 (centrosomal protein 70) | SID255360756 | -1.63 | under 3300 nuclei; migration not judged | 0.47 | 3223
MTRF1L (mitochondrial translation release factor 1 like) | SID255358057 | -0.13 | migration z between -2 and 2; enough cells | 0.78 | 4958
STK17B (serine/threonine kinase 17b) | SID255354154 | -0.42 | migration z between -2 and 2; enough cells | 0.72 | 5298
CD2AP (CD2 associated protein) | SID255356363 | -0.17 | migration z between -2 and 2; enough cells | 0.84 | 6230
GPR37 (G protein-coupled receptor 37) | SID255350004 | 1.29 | migration z between -2 and 2; enough cells | 1.06 | 6738
OR13F1 (olfactory receptor family 13 subfamily F member 1) | SID255363057 | 0.2 | migration z between -2 and 2; enough cells | 0.94 | 6382
TOP3B (DNA topoisomerase III beta) | SID255353935 | -0.22 | migration z between -2 and 2; enough cells | 0.83 | 6916
PALM2AKAP2 (PALM2 and AKAP2 fusion) | SID255355687 | 2 | migration z between -2 and 2; enough cells | 1.4 | 6358
PALM2AKAP2 (PALM2 and AKAP2 fusion) | SID255362219 | 2.71 (active) | migration z above 2; enough cells | 1.59 | 5859
PALM2AKAP2 (PALM2 and AKAP2 fusion) | SID255365987 | 0.66 | migration z between -2 and 2; enough cells | 1.06 | 5678
COMTD1 (catechol-O-methyltransferase domain containing 1) | SID255362458 | 1.48 | migration z between -2 and 2; enough cells | 1.09 | 5564

5 entries from above in another layout.
CPNE5 (copine 5) [SID255359559] — migration robust z-score: 0.76; migration class with cell-count check: migration z between -2 and 2; enough cells; migration relative to mock: 0.95; nuclei per well, duplicate mean: 4761
FADD (Fas associated via death domain) [SID255353799] — migration robust z-score: 0.55; migration class with cell-count check: migration z between -2 and 2; enough cells; migration relative to mock: 0.91; nuclei per well, duplicate mean: 6020
ZNF626 (zinc finger protein 626) [SID255364008] — migration robust z-score: 0.84; migration class with cell-count check: migration z between -2 and 2; enough cells; migration relative to mock: 1.09; nuclei per well, duplicate mean: 6002
CEP70 (centrosomal protein 70) [SID255360756] — migration robust z-score: -1.63; migration class with cell-count check: under 3300 nuclei; migration not judged; migration relative to mock: 0.47; nuclei per well, duplicate mean: 3223
MTRF1L (mitochondrial translation release factor 1 like) [SID255358057] — migration robust z-score: -0.13; migration class with cell-count check: migration z between -2 and 2; enough cells; migration relative to mock: 0.78; nuclei per well, duplicate mean: 4958
